No constants are given. Whether binding was seen depends on the method and setting. Some binding calls cover weakened binding; strength is not graded here.
T1: C-terminal residues of SANS (…)
T1 sequence (peptide): ALERPLALEDTEL

T2: PCDH15-CD3 C-terminal peptide (biotin-TTDS-…) (mouse)
T2 sequence (peptide, biotin-TTDS (trioxatridecan-succinamic acid spacer) on the N-terminus): MGPWNSLHIPMTKL

T3: CDH23 C-terminal peptide (biotin-TTDS-…) (mouse)
T3 sequence (peptide, biotin-TTDS (trioxatridecan-succinamic acid spacer) on the N-terminus): VIMESPLEITEL

T4: PCDH15-CD2 C-terminal peptide (biotin-TTDS-…) (mouse)
T4 sequence (peptide, biotin-TTDS (trioxatridecan-succinamic acid spacer) on the N-terminus): GANSEQYNTAL

T5: PCDH15-CD1 C-terminal peptide (biotin-TTDS-…) (mouse)
T5 sequence (peptide, biotin-TTDS (trioxatridecan-succinamic acid spacer) on the N-terminus): GIDVQPHSQSTSL


How the values were obtained:
[1] = target: T1, C-terminal residues of SANS (…); assay: SPR; harmonin fragments or full-length harmonin-a1 with C-terminal peptides; Fig. S10 and data not shown; both purified
[2] = target: T2, PCDH15-CD3 C-terminal peptide (biotin-TTDS-…) (mouse); assay: SPR; ProteOn XPR 36; N-terminally biotinylated peptides captured on a Neutravidin NLC sensor chip, whirlin fragments flowed as analytes at 20 μL/min for 2 min; 250 mM NaCl, 50 mM Tris pH 7.5, 0.5 mM TCEP; steady-state fit Req = (Rmax*C)/(Kd+C); mean of three experiments; Figure 4B shows the responses at 10 μM; both purified
[3] = target: T3, CDH23 C-terminal peptide (biotin-TTDS-…) (mouse); assay: as above
[4] = target: T4, PCDH15-CD2 C-terminal peptide (biotin-TTDS-…) (mouse); assay: as above
[5] = target: T5, PCDH15-CD1 C-terminal peptide (biotin-TTDS-…) (mouse); assay: as above

Binder	binding [1]	binding [2]	binding [3]	binding [4]	binding [5]
harmonin-NTD-PDZ1 (aa 1-192) (domain or fragment, UniProt Q9ES64 1-192) GAMGSTSMDRKVAREFRHKVDFLIENDAEKDYLYDVLRMYHQTMDVAVLVGDLKLVINEPNRLPLFDAIRPLIPLKHQVEYDQLTPRRSRKLKEVRLDRLHPEGLGLSVRGGLEFGCGLFISHLIKGGQADSVGLQVGDEIVRINGYSISSCTHEEVINLIRTKKTVSIKVRHIGLIPVKSSPEESLKWQYVDQFVSES	binds	–	–	–	–
whirlin-HHD1 (aa residues 30-121) (domain or fragment, UniProt Q80VW5-1 30-121) GAMGSTSGAGLRLLSANVRQLHQALTALLSEPEREQFTHCLNAYHARRNVFDLVRTLRVLLDSPVKRRLLPMLRLVIPRSDQLLFDQYTAEGLYLPATT	–	no binding (tested: > 1 mM)	no binding (tested: > 1 mM)	no binding (tested: > 1 mM)	no binding (tested: > 1 mM)
whirlin NTR-PDZ1 H202Y mutant (domain or fragment, UniProt Q80VW5-1 2-265) GAMGSTSNAQLDGLSVSSSSTGSLGSAAAAAGGGGGAGLRLLSANVRQLHQALTALLSEPEREQFTHCLNAYHARRNVFDLVRTLRVLLDSPVKRRLLPMLRLVIPRSDQLLFDQYTAEGLYLPATTPYRQPAWAAPDGAGPGEVRLVSLRRAKAHEGLGFSIRGGSEHGVGIYVSLVEPGSLAEKEGLRVGDQILRVNDKSLARVTYAEAVKALKGSKKLVLSVYSAGRIPGGYVTNHIYTWVDPQGRSTSPPSSLPQPHGSTLRQREDD	–	no binding (tested: 10 μM)	no binding (tested: 10 μM)	no binding (tested: 10 μM)	no binding (tested: 10 μM)
whirlin-NTR (aa residues 2-147) (domain or fragment, UniProt Q80VW5-1 2-147) GAMGSTSNAQLDGLSVSSSSTGSLGSAAAAAGGGGGAGLRLLSANVRQLHQALTALLSEPEREQFTHCLNAYHARRNVFDLVRTLRVLLDSPVKRRLLPMLRLVIPRSDQLLFDQYTAEGLYLPATTPYRQPAWAAPDGAGPGEVRLVSLRRA	–	no binding (tested: > 1 mM)	no binding (tested: > 1 mM)	no binding (tested: > 1 mM)	no binding (tested: > 1 mM)
whirlin-PDZ2 (aa residues 272-368) (domain or fragment, UniProt Q80VW5-1 272-368) GAMGSTSLLQSGDEKKVNLVLGDGRSLGLTIRGGAEYGLGIYITGVDPGSEAESSGLKVGDQILEVNGRSFLNILHDEAVKLLKSSRHLILTVKDVGRLPHART	–	–	no binding (tested: > 1 mM)	–	–

— publication PMC7532178, “Interaction of protocadherin-15 with the scaffold protein whirlin supports its anchoring of hair-bundle lateral links in cochlear hair cells” (Scientific Reports, 2020)
